Laboratory results: PubChem BioAssay AID602196 (INSERM, 2012)
Test: 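Knock-downs that protect lung cancer cells from cisplatin or sensitise them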. System: human A549 lung cancer cells. Reagent: siRNA pair against human genes. Time to read-out: 48 h transfection before cisplatin; time from cisplatin to read-out not stated. Conditions: cisplatin at a dose killing half of control-siRNA cells; exact dose and duration not given. Detection: 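Shift in cisplatin death relative to control siRNA, from -50 (all cells die) to +50 (no cells die); siRNAs harmful on their own scored 0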. Direction: two-siRNA summed score (-2 to +2): higher = both siRNAs protect from cisplatin killing; -2 means both sensitise; mean protection from cisplatin (shift in death) and protection from cisplatin (shift in death), siRNA C and protection from cisplatin (shift in death), siRNA D: higher = protection from cisplatin killing. Hit rule: 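siRNAs harmful alone (LDH or WST-1) get 0; others get +1 for less and -1 for more cisplatin killing; genes are active when the two siRNAs give the same sign, summing to ±2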. Meaning of the calls: active = both siRNAs shift cisplatin killing the same way; inactive = no consistent shift, or siRNA harmful alone.
Shown is an unselected part of about 23,000 reagents. 455 of all reagents (2%) were called active. 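Active includes both protection and sensitisation; some change values fall well beyond the stated -50 to +50 range.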 Reagents against one gene are numbered here. The record does not give: the amount of reagent.

The first 3 entries, ahead of the listing:
target,reagent,two-siRNA summed score (-2 to +2),mean protection from cisplatin (shift in death) (%),"protection from cisplatin (shift in death), siRNA C (%)","protection from cisplatin (shift in death), siRNA D (%)",Outcome
MARCHF4 (GeneID 57574),1,0,-2.7,0.2,-5.6,inactive
LOC440190,1,0,12,14.6,9.3,inactive
MGAT1 (GeneID 4245),1,0,-4.3,2.8,-11.4,inactive

The listing, from the start:
target,reagent,two-siRNA summed score (-2 to +2),mean protection from cisplatin (shift in death) (%),"protection from cisplatin (shift in death), siRNA C (%)","protection from cisplatin (shift in death), siRNA D (%)",Outcome
MARCHF4 (GeneID 57574),1,0,-2.7,0.2,-5.6,inactive
LOC440190,1,0,12,14.6,9.3,inactive
MGAT1 (GeneID 4245),1,0,-4.3,2.8,-11.4,inactive
FOXI1 (GeneID 2299),1,0,6.3,11.3,1.3,inactive
ZNF557 (GeneID 79230),1,0,2.4,-4,8.8,inactive
GFPT2 (GeneID 9945),1,0,6,3.2,8.8,inactive
PCYT2 (GeneID 5833),1,0,0.4,-7.6,8.3,inactive
MYL11 (GeneID 29895),1,0,3.4,-3,9.7,inactive
LOC391353,1,-1,-11.1,-6.3,-15.9,inactive
PI16 (GeneID 221476),1,0,5.1,3.2,7,inactive
FBXO6 (GeneID 26270),1,-2,-35.5,-41.5,-29.5,active
NEU3 (GeneID 10825),1,0,5.4,1.4,9.3,inactive
LOC401391,1,0,13,14.8,11.2,inactive
RPL32 (GeneID 6161),1,0,9.1,15.6,2.6,inactive
LPAR2 (GeneID 9170),1,1,7.1,-4.3,18.6,inactive
LCK (GeneID 3932),1,0,2.1,8.7,-4.6,inactive
GPAM (GeneID 57678),1,0,2.5,-2.7,7.7,inactive
PRAC2 (GeneID 360205),1,2,19.6,24.7,14.6,active
MITD1 (GeneID 129531),1,1,4.5,-6.6,15.6,inactive
NTSR2 (GeneID 23620),1,0,-9.5,-7.9,-11.2,inactive
MAST4 (GeneID 375449),1,0,3.3,5.8,0.8,inactive
MAST4 (GeneID 375449),2,1,4.8,10,-0.4,inactive
KAZN (GeneID 23254),1,0,0.8,-0.8,2.3,inactive
SH3RF3 (GeneID 344558),1,-1,-20.1,-16.6,-23.5,inactive
FLJ16287,1,0,17.1,18.8,15.3,inactive
QRICH1 (GeneID 54870),1,0,-12.7,-16.1,-9.3,inactive
LOC339799,1,0,12.3,26.4,-1.7,inactive
OR2A4 (GeneID 79541),1,0,-1.4,-2.7,-0.2,inactive
LOC388822,1,0,5.9,3.8,8,inactive
EXOSC8 (GeneID 11340),1,0,8.7,10.6,6.7,inactive
CADM4 (GeneID 199731),1,0,8.2,4,12.5,inactive
PAXX (GeneID 286257),1,0,-0.3,4.5,-5.1,inactive
RNFT1 (GeneID 51136),1,0,-1.8,-7.7,4,inactive
SLC15A2 (GeneID 6565),1,0,-3.3,-12.7,6.1,inactive
LOC440419,1,0,10.5,13.5,7.4,inactive
SEPTIN9 (GeneID 10801),1,0,-2,-6.4,2.4,inactive
POU2F2 (GeneID 5452),1,-1,-3.6,14,-21.2,inactive
LSM7 (GeneID 51690),1,0,3.8,11.5,-3.9,inactive
PDCL (GeneID 5082),1,0,-6.6,-12.8,-0.3,inactive
